Source: patent US20240067740A1
These are yes or no findings as the source states them, for the method shown. Some results given as binding are weak or reduced against the parent protein; the word gives no strength.

Sequences of proteins named here, by UniProt entry; tags and fusion partners are left off. A change or cut given only in a name is not applied to a line headed by its entry.
UniProt P20333: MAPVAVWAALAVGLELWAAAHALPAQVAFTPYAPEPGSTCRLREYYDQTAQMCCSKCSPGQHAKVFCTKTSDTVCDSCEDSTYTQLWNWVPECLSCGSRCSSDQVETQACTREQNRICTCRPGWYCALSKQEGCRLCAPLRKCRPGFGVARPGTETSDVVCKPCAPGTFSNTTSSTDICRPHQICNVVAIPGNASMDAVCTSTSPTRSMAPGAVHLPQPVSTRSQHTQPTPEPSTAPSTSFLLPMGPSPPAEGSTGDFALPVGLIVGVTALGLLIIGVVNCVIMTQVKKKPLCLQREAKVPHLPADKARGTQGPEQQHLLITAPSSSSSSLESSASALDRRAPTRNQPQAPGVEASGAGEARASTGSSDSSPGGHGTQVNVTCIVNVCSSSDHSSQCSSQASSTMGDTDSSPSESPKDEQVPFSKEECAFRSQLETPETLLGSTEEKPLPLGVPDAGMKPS

How the values were obtained:
[1] = biological target: human TNFR2 (Homo sapiens) (UniProt P20333); assay: flow cytometry on HEK293T cells stably overexpressing the receptor
[2] = biological target: cynomolgus TNFR2 (Macaca fascicularis); assay: as above
[3] = biological target: human TNFR2 (Homo sapiens) (UniProt P20333); assay: cell binding, flow cytometry or imaging
[4] = biological target: cynomolgus TNFR2 (Macaca fascicularis); assay: cell binding, flow cytometry or imaging
[5] = biological target: cynomolgus TNFR2 (Macaca fascicularis); assay: flow cytometry on HEK293T cells stably overexpressing cynomolgus TNFR2
[6] = biological target: human TNFR2 (Homo sapiens) (UniProt P20333); assay: flow cytometry on HEK293T cells stably overexpressing human TNFR2, Alexa Fluor 647 secondary antibody
[7] = biological target: human TNFR2 (Homo sapiens) (UniProt P20333); assay: flow cytometry on HEK293T cells stably overexpressing human TNFR2

Measured: binding

B1: R2_mAb-3 (antibody, V domains shown)
VH: QVQLQESGPGLVKPSETLSLTCTVSGGSISSYYWSWIRQAPGKGLEWIGYIYYSGSTNYNPSLKSRVTISVDTSKNQFSLKLSSVTAADTAVYYCARDDGSSDYGMDVWGQGTTVTVSS
VL: AIQLTQSPSSLSASVGDRVTITCRASQGISSALAWYQQKPGKAPKLLIYDASSLESGVPSRFTGSGTDFTLTISSLQPEDFATYYCQQFNNYMYTFGQGTKLEIK
binds: [1] | [2] | [3] | [4] | [5] | [6] | [7]
